Laboratory results as given in patent US6562866B1 (priority 1998, dated 2003).
For part of these data: At least one compound was matched to its structure with a doubt left. Some entries share one result that the patent states for a list of compounds.

Tests used:
HMG-CoA reductase = target: T1, HMG-CoA reductase (Rattus norvegicus, UniProt P51639); assay: HMG-CoA reductase activity assay on liver microsomes of the fed rats; format: biochemical; conditions: liver microsomes of rats fed 0.1% test substance in 1% cholesterol diet, versus control group
T1 construct: the supernatant was ultracentrifuged at 100,000×g for 60 minutes to obtain microsomal precipitates; from tissue; host or cells: liver microsomes of the fed rats
T1 sequence (P51639 1-887): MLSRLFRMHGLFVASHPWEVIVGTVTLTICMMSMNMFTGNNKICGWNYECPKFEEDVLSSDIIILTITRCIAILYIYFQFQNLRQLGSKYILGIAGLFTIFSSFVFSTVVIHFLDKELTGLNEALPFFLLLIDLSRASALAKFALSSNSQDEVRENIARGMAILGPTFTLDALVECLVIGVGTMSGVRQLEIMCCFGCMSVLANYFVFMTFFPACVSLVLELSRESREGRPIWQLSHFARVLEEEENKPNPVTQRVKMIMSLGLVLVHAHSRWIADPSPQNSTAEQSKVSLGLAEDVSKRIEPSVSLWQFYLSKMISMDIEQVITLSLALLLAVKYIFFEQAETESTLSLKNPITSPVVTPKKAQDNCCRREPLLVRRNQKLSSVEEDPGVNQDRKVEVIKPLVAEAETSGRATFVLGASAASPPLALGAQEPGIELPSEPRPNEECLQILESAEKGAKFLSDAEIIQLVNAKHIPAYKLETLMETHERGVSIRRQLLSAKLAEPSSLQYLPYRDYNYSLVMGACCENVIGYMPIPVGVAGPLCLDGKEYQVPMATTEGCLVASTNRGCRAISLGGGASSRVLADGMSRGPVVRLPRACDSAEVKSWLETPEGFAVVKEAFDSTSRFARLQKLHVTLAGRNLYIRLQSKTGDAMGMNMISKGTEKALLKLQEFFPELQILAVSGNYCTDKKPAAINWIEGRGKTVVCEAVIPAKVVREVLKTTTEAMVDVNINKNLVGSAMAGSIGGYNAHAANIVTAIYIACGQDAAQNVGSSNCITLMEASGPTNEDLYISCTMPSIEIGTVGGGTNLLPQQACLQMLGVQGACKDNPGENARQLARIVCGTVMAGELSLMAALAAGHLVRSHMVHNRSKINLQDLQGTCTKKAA
Procedure: In order to determine the activity of HMG-COA reductase, Hulcher's method was employed after some modification (see J. Lipid Res., 14, 625-641(1973)). In this method, the concentration of the coenzyme-A (CoA-SH), which is produced when HMG-CoA is reduced to a mevalonate salt by the action of HMG-CoA reductase, is determined by spectroscopy and the activity of HMG-CoA reductas e is calculated therefrom.
3g of liver tissue taken from each group of rats of Example 2 was washed successively with 100 ml of a cold saline (0.15M NaCl) and 100 ml of a cold buffer solution A (0.1M triethanolamine, HCl/0.2M EDTA/2 mM dithiothreitol (DTT)). The cold buffer solution A was added to the liver tissue in an amount of 2 ml per 1 g of the liver tissue and the mixture was homogenized with a homogenizer. The homogenate was centrifuged at 15,000×g for 15 minutes, and then, the supernatant was ultracentrifuged at 100,000×g for 60 minutes to obtain microsomal precipitates. The precipitates thus obtained was washed with a cold buffer solution A and kept in a 1.5 ml tube at −70° C. […]
Then, the reactant was mixed with 20 μl of DTNB buffer solution (3mM DTNB/0.1M triethanolamine/0.2M EDTA, pH 7.4) and the absorbance of the mixture was determined at 412 nm to calculate the amount of CoA-SH (activity of HMG-CoA reductase activity).

ACAT = ACAT assay on liver microsomes of the fed rats; format: biochemical; conditions: liver microsomes of rats fed 0.1% test substance in 1% cholesterol diet, versus control group
Procedure: 1 g each of the livers taken from each group of rats of Example 2 was homogenized in 5 ml of homogenization medium (0.1 M KH2PO4, pH 7.4, 0.1 mM EDTA and 10 mM β-mercaptoethanol). The homogenate was centrifuged at 3,000×g for 15 min. at 4° C. and the supernatant thus obtained was centrifuged at 15,000×g for 15 min. at 4° C. to obtain a supernatant. The supernatant was put into an ultracentrifuge tube (Beckman) and centrifuged at 100,000×g for 1 hour at 4° C. to obtain microsomal pellets, which were then suspended in 3 ml of the homogenization medium and centrifuged at 100,000×g for 1 hour at 4° C. The pellets thus obtained were suspended in 1 ml of the homogenization medium. The protein concentration of the resulting suspension was determined by Lowry's method and then adjusted to 4 to 8 mg/ml. The resulting suspension was stored in a deep freezer (Biofreezer, Forma Scientific Inc.).
6.67 μl of 1 mg/ml cholesterol solution in acetone was mixed with 6 μl of 10% Triton WR-1339 (Sigma Co.) in acetone and, then, acetone was removed from the mixture by evaporation under a nitrogen; flow. Distilled water was added to the resulting mixture to adjust the concentration of cholesterol to 30 mg/ml.
Added to 10 μl of the resulting aqueous cholesterol solution were 10 μl of 1 M KH2PO4 (pH 7.4), 5 μl of 0.6 mM bovine serum albumin (BSA), 10 μl of microsome solution obtained in (Step 1) and 55 μl of distilled water (total 90 μl). The mixture was pre-incubated in a water bath at 37° C. for 30 min. 10 μl of (1-^14C) oleyl-CoA solution (0.05 μCi, final concentration: 10 μM) was added to the pre-incubated mixture and the resulting mixture was incubated in a water bath at 37° C. for 30 min. […]
200 μl of the resulting supernatant was put in a scintillation bottle and 4 ml of scintillation fluid (Lumac) was added thereto. The mixture was assayed for radioactivity with 1450 Microbeta liquid scintillation counter (Wallacoy, Finland). ACAT activity was calculated as picomoles of cholesteryl oleate synthesized per min. per mg protein (pmoles/min/mg protein).

[1] = Chemical analysis of blood of rabbits fed 1% cholesterol diets; format: in vivo, New Zealand White rabbits; conditions: 0.1% in 1% cholesterol diet, 6 weeks
Procedure: (§1) 24 three-month-old New Zealand White rabbits (Yeonam Horticulture and Animal Husbandry College, Korea), each weighing about 2.5 to 2.6 kg, were raised under a condition of temperature 20±2° C., relative humidity 55±5%, and photoperiod 12L/12D. […] RC4 diet comprises 7.6% moisture, 22.8% crude protein, 2.8% crude fat, 8.8% crude ash, 14.4% crude cellulose and 43.6% soluble nitrogen-free substances. Rutin and quercetin were purchased from Sigma Co. (St. Louis, Mo.).
The rabbits were fed for 6 weeks while being allowed free access to the diets and water.
After six weeks, the rabbits were anesthetized with an intramuscular injection of ketamine (50 mg/kg) in the femoral region and sacrificed. A blood sample was taken from the heart of each rabbit, allowed to stand for 2 hours and centrifuged at 3,000 rpm for 15 minutes and the supernatant serum was separated and stored in a freezer before use.
The chemical analysis of blood was carried out by employing a blood chemical analyzer (CIBA Corning 550 Express, USA) to determine the changes in GOT, GPT, γ-GTP, total cholesterol and triglyceride levels.

[2] = system: main artery fatty streak / arterial endothelium; assay: Analysis for fatty streak in the main artery of cholesterol-fed rabbits; format: in vivo, New Zealand White rabbits; conditions: 1% cholesterol plus 1 mg/kg Lovastatin or 0.1% rutin
Procedure: as §1, with “substances.” for “substances. Rutin and quercetin were purchased from Sigma Co. (St. Louis, Mo.).”
The chest of each of the rabbits sacrificed in Step 2 was incised. The downward portion of the main artery from the site 1 cm above the aortic valve was cut out in a length of about 5 cm and the fat surrounding the main artery was removed. The main artery was incised in the middle along the longitudinal axis and pinned to a dish. The moist artery was photographed and, then, the staining of fatty streaks was carried out in accordance with the method of Esper, E., et al. (J. Lab. Clin. Med., 121, 103-110 (1993)) as follows.
A part of the incised main artery was washed three times with anhydrous propylene glycol for 2 min and stained for 30 min. with a saturated solution of Oil Red O (ORO, Sigma Co.) dissolved in propylene glycol. […] The area of stained region (fatty streak region) was determined with an image analyzer (LEICA, Q-600, Germany) and its proportion (%) to the total arterial area was calculated.

[3] = system: liver cells around the central vein; assay: Microscopic grading of abnormal fat-containing cells in the liver of cholesterol-fed rabbits; format: in vivo, New Zealand White rabbits; conditions: 1% cholesterol plus 1 mg/kg Lovastatin or 0.1% rutin
Procedure: as §1, with “substances.” for “substances. Rutin and quercetin were purchased from Sigma Co. (St. Louis, Mo.).”

Compound	Inhibition of HMG-CoA reductase activity (%) (HMG-CoA reductase; listed as quercetin)	% Inhibition on ACAT activity (ACAT; listed as quercetin)	lowering of neutral lipid level as compared to the comparative group [1]	Inhibition of HMG-CoA reductase activity (%) (HMG-CoA reductase; listed as rutin)	% Inhibition on ACAT activity (ACAT) [%]	% Inhibition on ACAT activity (ACAT; listed as rutin)	layer of macrophage-lipid complex on the arterial endothelium (FIGS. 1B, 1C) [2]	microscopic features of the liver (FIGS. 2B, 2C) [3]
O=c1c(O)c(-c2ccc(O)c(O)c2)oc2cc(O)cc(O)c12 [Quercetin, quercetin]	30-40%	20-25%	44-45%	–	–	–	–	–
C[C@@H]1O[C@@H](OC[C@H]2O[C@@H](Oc3c(-c4ccc(O)c(O)c4)oc4cc(O)cc(O)c4c3=O)[C@H](O)[C@@H](O)[C@@H]2O)[C@H](O)[C@H](O)[C@H]1O [Rutin]	–	–	44-45%	30-40%	25	20-25%	no or very thin layers	almost all liver cells are of a normal shape
